# From patent publication EP3492066A1, “COSMETIC PREPARATIONS HAVING A CALMING EFFECT” (Beiersdorf AG, priority 2010, dated 2012)
# Some entries repeat one wording, which the source may state once for all of them.
# System: Probandinnen
# Assay: Preselection smelling test: subjects choose fragrances whose scent character they find calming
# Type: in vivo, Menschen
# Details: 0,5 %ig in Propylenglykol; 10 Probandinnen, 20 bis 50 Jahre; subjective choice by smelling
row,Compound,"Duftcharakter, wie von den Probandinnen empfunden"
1,"C=CC(C)CCCC(C)(C)O (stereo not shown) [2,6-Dimethyl-7-octen-2-ol]",Düfte mit beruhigendem Duftcharakter
2,CCCCCCCC=O [Octanal],Düfte mit beruhigendem Duftcharakter
3,C=C(C)C1CC=C(C)CC1 (stereo not shown) [Limonen],eher stimulierend
4,CCCCCC(C)=O [Heptan-2-one],Düfte mit beruhigendem Duftcharakter
5,CC(C)=CCCC(C)CCO (stereo not shown) [Citronellol],eher stimulierend
6,CCCCCCCC(C)=O [Nonan-2-one],Düfte mit beruhigendem Duftcharakter
7,CCCCCCOC(=O)c1ccccc1O [Hexyl salicylate],neutrale Düfte
8,CC(=O)C1=C(C)[C@@H]2C[C@@]3(C1)[C@H](C)CC[C@H]3C2(C)C [Methyl cedryl ketone],neutrale Düfte
9,C[C@@H]1CC[C@H]2C(C)(C)[C@H]3C[C@@]12CC[C@@]3(C)O [Cedrol],beruhigende Duftstoffe
10,O=C(OCc1ccccc1)c1ccccc1 [Benzyl benzoate],neutrale Düfte
11,CCCCCC1CCCC(=O)O1 (stereo not shown) [Tetrahydro-6-pentyl-2H-pyran-2-one],Düfte mit beruhigendem Duftcharakter
12,CCCCCOC(=O)c1ccccc1O [Amyl salicylate],eher stimulierend
13,CCCCCCC1(C)CCC(=O)O1 (stereo not shown) [5-hexyldihydro-5-methyl-2(3H)-furanone],Düfte mit beruhigendem Duftcharakter
14,CCCCCCC(C)=O [Octan-2-one],Düfte mit beruhigendem Duftcharakter
15,CCCCCC1C(=O)CCC1CC(=O)OC (stereo not shown) [Methyl dihydrojasmonate],neutrale Düfte
16,OCCc1ccccc1 [Phenylethyl alcohol],neutrale Düfte
17,C=CC(C)(O)CCC=C(C)C (stereo not shown) [Linalool],beruhigende Duftstoffe
18,CC(=O)CCC=C(C)C [6-Methyl-5-Hepten-2-one],Düfte mit beruhigendem Duftcharakter
19,O=C(OCc1ccccc1)c1ccccc1O [Benzyl salicylate],neutrale Düfte
